These results are taken from patent US20230088461A1.

The assay has as its target GPC3 on GPC3 positive human hepatocellular carcinoma cell lines (HepG2, Huh7, PLC/PRF/5) (human), P51654. As to the kind of experiment: cell-based or functional assay.

B1: huLIC19309a CAR (protein)
chain: DIVMTQSPDSLAVSLGERATINCRSSQTIVHSNGNTYLEWYQQKPGQPPKLLIYKVSNRFSGVPDRFSGSGSGTDFTLTISSLQAEDVAVYYCFQVSHVPYTFGGGTKLEIKGSTSGSGKPGSGEGSTKGQVQLVQSGAEVKKPGASVKVSCKASGYTFTDYEMHWVRQAPGQRLEWMGGIDPETGNTAYSQKFKGRVTITRDTSASTAYMELSSLRSEDTAVYYCARYYSFAYWGQGTLVTVSSTSTTTPAPRPPTPAPTIASQPLSLRPEACRPAAGGAVHTRGLDFACDIYIWAPLAGTCGVLLLSLVITLYCKRGRKKLLYIFKQPFMRPVQTTQEEDGCSCRFPEEEEGGCELRVKFSRSADAPAYQQGQNQLYNELNLGRREEYDVLDKRRGRDPEMGGKPRRKNPQEGLYNELQKDKMAEAYSEIGMKGERRRGKGHDGLYQGLSTATKDTYDALHMQALPPR
In the case of B1, the IFN-γ release (HTRF) after 20 h co-culture with HepG2 cells, E/T 3:1 was 31000 µg/mL; the TNF-α release (HTRF) after 20 h co-culture with HepG2 cells, E/T 3:1 turned out to be 5450 µg/mL; the cytotoxicity on HepG2 cells, E/T 3:1 was determined as 93.8%; the cytotoxicity on Huh7 cells, E/T 3:1 was 97.5%. This molecule also yielded a cytotoxicity on PLC/PRF/5 cells, E/T 3:1 of 73.5%.

B2: huLIC19309b CAR (protein)
chain: DIVMTQSPLSLPVTPGEPASISCRSSQTIVHSNGNTYLEWYLQKPGQSPQLLIYKVSNRFSGVPDRFSGSGSGTDFTLKISRVEAEDVGVYYCFQVSHVPYTFGGGTKLEIKGSTSGSGKPGSGEGSTKGQVQLVQSGAEVKKPGASVKVSCKASGYTFTDYEMHWVRQATGQGLEWMGGIDPETGNTAYSQKFKGRVTMTRNTSISTAYMELSSLRSEDTAVYYCARYYSFAYWGQGTLVTVSSTSTTTPAPRPPTPAPTIASQPLSLRPEACRPAAGGAVHTRGLDFACDIYIWAPLAGTCGVLLLSLVITLYCKRGRKKLLYIFKQPFMRPVQTTQEEDGCSCRFPEEEEGGCELRVKFSRSADAPAYQQGQNQLYNELNLGRREEYDVLDKRRGRDPEMGGKPRRKNPQEGLYNELQKDKMAEAYSEIGMKGERRRGKGHDGLYQGLSTATKDTYDALHMQALPPR
On to B2, for which the IFN-γ release (HTRF) after 20 h co-culture with HepG2 cells, E/T 3:1 is 24800 µg/mL; the TNF-α release (HTRF) after 20 h co-culture with HepG2 cells, E/T 3:1 worked out at 6080 µg/mL; the cytotoxicity on HepG2 cells, E/T 3:1 is 97%; the cytotoxicity on Huh7 cells, E/T 3:1 turned out to be 94.1%. This molecule returned a cytotoxicity on PLC/PRF/5 cells, E/T 3:1 of 72.2%.
